In the supplement of paper PMC10849652:
Some of the results follow.

Sequences of proteins named here, by UniProt entry; tags and fusion partners are left off. A change or cut given only in a name is not applied to a line headed by its entry.
UniProt Q9H7F4: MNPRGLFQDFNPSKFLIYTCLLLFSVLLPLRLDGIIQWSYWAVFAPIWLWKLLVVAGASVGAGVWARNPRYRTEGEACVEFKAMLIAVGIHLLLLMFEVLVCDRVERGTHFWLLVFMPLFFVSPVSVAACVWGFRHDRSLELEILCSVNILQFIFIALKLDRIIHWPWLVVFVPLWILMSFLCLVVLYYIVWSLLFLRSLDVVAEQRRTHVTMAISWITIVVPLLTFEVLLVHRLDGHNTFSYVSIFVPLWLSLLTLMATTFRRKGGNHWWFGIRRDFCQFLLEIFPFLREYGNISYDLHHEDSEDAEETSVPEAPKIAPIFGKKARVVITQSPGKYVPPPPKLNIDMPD
UniProt Q96CP7: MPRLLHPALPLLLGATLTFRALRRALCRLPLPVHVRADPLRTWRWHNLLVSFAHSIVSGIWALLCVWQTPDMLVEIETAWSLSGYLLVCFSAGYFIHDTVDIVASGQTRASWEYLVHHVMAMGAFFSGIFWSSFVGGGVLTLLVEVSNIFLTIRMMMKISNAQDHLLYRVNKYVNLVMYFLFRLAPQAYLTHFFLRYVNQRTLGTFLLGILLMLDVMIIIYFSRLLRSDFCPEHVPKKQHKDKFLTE
UniProt Q6I9Y2: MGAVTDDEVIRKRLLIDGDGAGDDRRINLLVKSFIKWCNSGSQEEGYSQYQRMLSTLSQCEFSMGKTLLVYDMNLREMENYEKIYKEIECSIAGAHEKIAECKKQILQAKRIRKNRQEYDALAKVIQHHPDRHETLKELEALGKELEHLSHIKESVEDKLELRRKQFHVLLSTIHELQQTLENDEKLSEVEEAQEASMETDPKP
UniProt Q04726: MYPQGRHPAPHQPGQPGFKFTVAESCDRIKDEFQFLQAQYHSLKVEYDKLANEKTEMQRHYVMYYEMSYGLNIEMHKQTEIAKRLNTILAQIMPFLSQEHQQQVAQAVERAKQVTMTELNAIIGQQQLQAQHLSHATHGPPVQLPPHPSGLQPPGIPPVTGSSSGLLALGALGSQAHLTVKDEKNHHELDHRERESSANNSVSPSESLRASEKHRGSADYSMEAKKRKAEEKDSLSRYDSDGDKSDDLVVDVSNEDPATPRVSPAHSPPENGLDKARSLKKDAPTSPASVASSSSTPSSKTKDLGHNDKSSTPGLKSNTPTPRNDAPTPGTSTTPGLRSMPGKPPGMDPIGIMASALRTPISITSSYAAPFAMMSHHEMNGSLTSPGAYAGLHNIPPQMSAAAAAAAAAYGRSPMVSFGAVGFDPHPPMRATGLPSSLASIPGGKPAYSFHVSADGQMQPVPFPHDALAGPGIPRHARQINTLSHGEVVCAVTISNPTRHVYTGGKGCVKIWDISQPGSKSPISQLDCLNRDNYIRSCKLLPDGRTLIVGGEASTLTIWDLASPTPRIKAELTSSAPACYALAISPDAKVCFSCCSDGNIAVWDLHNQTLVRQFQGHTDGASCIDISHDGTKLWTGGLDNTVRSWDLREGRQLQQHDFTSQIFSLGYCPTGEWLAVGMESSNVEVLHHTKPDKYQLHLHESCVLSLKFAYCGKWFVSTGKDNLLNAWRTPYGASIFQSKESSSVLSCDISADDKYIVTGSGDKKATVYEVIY
UniProt Q9HD45: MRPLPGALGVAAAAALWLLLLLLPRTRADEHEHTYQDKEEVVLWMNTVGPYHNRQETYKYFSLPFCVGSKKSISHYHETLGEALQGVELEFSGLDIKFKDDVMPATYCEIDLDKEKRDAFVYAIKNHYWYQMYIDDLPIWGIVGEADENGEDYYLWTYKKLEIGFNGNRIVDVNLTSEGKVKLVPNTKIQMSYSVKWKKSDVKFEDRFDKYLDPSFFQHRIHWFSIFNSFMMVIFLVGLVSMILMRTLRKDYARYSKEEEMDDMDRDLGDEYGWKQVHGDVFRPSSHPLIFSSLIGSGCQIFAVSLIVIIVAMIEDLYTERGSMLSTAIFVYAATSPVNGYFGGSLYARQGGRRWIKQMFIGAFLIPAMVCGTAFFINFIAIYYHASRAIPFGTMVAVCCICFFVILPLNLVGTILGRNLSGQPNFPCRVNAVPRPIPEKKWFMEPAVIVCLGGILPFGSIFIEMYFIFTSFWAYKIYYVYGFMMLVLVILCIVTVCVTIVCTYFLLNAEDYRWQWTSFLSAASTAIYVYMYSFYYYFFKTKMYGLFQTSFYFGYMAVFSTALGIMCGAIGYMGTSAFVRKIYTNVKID
UniProt Q9BVV7: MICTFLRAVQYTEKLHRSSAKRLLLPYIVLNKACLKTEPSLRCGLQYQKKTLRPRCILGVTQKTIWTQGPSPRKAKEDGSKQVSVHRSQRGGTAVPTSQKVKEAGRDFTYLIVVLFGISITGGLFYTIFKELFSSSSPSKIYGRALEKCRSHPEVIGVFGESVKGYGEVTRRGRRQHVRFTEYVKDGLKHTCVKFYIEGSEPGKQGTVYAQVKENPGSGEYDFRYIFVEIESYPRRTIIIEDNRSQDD
UniProt Q13445: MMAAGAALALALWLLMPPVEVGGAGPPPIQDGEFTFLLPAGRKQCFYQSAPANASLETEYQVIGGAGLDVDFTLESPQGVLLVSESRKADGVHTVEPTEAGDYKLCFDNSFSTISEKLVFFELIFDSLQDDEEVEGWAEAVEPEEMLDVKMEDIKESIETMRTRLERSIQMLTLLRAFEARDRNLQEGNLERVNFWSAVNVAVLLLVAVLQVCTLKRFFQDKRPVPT
UniProt Q9Y584: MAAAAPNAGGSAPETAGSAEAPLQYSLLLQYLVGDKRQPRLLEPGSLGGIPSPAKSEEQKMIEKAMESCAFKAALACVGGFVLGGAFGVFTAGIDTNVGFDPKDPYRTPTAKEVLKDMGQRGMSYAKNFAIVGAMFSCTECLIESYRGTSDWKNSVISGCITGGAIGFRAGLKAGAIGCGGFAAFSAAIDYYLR
UniProt P17152: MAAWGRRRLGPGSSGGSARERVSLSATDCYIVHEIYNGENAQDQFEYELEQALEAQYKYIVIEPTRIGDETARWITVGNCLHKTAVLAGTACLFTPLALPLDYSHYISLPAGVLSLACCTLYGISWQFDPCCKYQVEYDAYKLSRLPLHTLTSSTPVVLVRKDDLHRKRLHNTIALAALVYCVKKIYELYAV
UniProt Q07157: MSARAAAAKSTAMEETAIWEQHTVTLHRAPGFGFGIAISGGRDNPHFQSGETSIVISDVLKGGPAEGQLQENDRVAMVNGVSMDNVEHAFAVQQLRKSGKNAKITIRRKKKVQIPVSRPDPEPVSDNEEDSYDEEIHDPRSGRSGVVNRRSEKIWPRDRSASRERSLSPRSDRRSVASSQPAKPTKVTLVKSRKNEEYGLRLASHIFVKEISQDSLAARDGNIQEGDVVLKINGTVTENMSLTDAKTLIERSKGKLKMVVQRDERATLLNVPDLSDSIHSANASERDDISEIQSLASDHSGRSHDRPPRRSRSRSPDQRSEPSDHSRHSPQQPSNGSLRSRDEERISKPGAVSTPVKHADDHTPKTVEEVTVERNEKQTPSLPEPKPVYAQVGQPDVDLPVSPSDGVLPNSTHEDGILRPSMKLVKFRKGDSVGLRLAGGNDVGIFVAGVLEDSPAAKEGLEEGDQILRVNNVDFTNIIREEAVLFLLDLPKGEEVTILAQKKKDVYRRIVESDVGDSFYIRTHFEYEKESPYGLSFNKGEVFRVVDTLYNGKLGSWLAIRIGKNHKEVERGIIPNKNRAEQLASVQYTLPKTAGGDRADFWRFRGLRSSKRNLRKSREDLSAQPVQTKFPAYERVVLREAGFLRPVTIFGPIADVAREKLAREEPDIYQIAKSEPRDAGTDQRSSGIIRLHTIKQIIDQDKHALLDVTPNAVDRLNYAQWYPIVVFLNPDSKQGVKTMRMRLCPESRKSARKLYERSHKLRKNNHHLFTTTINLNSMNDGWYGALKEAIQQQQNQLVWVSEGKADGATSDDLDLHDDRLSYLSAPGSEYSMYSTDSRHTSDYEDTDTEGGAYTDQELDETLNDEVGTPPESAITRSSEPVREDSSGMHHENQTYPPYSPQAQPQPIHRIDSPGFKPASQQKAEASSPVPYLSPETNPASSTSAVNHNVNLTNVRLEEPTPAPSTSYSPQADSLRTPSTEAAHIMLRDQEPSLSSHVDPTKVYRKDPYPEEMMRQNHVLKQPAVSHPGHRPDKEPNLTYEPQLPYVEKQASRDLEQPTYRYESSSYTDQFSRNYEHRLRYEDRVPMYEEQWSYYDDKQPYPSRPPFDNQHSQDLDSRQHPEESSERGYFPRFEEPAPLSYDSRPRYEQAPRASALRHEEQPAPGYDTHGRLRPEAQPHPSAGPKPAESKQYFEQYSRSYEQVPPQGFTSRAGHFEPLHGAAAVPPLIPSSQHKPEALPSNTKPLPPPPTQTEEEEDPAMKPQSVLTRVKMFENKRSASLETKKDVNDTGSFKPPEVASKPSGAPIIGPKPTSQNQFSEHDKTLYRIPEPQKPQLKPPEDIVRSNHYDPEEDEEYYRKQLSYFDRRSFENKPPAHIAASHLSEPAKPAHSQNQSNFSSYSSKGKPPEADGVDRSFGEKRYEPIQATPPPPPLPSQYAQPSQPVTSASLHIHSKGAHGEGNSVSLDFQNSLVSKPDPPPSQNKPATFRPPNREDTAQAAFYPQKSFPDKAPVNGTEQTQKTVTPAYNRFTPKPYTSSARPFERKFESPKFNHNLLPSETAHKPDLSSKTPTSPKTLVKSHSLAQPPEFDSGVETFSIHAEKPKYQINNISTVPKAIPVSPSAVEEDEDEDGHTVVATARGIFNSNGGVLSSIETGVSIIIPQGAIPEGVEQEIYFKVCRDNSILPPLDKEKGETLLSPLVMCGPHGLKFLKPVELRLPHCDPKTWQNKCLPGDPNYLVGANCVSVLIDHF
UniProt Q86UE8, whole entry, looked up: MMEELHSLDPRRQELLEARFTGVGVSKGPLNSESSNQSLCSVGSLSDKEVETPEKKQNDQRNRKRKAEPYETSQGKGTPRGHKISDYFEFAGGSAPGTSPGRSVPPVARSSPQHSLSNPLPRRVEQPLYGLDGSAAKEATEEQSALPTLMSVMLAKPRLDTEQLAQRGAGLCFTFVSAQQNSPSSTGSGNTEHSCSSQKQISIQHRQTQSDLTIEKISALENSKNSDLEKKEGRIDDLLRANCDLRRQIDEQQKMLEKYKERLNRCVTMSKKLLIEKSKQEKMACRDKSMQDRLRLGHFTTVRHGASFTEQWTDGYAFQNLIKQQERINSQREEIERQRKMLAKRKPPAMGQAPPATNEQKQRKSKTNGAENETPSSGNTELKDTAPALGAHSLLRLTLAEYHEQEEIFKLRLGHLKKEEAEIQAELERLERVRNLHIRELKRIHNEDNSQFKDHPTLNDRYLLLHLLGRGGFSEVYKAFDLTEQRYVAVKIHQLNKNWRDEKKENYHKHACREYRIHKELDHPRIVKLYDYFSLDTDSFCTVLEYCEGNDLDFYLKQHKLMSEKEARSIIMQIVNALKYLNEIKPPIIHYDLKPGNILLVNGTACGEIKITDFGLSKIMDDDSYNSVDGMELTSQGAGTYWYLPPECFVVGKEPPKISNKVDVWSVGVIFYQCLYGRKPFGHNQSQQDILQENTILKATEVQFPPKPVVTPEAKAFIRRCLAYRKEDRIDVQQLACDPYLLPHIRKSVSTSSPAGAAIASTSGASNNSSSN
UniProt Q9NX61: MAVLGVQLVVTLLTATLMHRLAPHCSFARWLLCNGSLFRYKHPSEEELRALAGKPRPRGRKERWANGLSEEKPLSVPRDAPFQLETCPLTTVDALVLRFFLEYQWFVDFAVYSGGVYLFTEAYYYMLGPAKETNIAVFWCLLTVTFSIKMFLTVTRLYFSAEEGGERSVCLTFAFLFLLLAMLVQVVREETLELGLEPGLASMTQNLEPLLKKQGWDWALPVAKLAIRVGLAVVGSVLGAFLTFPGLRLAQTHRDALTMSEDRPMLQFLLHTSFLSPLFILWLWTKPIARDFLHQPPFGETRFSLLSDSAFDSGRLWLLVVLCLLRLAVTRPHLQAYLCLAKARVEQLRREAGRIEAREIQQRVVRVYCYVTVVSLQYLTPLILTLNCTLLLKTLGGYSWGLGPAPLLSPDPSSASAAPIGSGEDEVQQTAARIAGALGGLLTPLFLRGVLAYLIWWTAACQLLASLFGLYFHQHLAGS
UniProt Q9Y5L4: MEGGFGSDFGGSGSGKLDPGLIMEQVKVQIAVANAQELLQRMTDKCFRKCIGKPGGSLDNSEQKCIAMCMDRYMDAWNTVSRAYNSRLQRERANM
UniProt P31483: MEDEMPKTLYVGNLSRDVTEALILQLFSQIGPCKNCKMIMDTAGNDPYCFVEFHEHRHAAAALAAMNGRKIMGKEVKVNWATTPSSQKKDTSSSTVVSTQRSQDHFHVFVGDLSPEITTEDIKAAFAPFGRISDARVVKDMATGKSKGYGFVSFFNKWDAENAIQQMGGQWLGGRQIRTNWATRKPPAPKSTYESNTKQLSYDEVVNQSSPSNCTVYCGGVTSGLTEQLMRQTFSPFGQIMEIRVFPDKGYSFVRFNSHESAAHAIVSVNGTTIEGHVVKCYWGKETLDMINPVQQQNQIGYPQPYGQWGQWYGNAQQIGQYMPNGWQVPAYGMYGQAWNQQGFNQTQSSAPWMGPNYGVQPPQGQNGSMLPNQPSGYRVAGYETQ

Tests used:
Assay in all cases: log2 fold change, soluble protein after heating vs DMSO (PISA); higher = thermal stabilisation; K562 lysate, 10 uM; active = over 0.2 and 3.5 SD of the protein, either way, in both replicates (recomputed)
[1] = compound: CN1CC[C@H](c2c(O)cc(O)c3c(=O)cc(-c4ccccc4Cl)oc23)[C@H](O)C1 [alvocidib]
Outline: (§1)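 To prepare the extract, K562 pellets were dounce-homogenised in PBS pH 7.4 with 1 mM MgCl2, giving crude material at 1 mg/mL protein. This was treated with 10 μM compound for 30 min, then heated in aliquots for 3 min over 48°C-58°C before pooling and addition of NP-40 to 0.5% at 4°C. Centrifugation at 21,000xg for 90 min left soluble protein in the supernatant, which TMTpro 16plex LC-MS/MS quantified with equalised channel sums. Results are log-two fold changes in thermal stability compared with solvent controls, from duplicates.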

[2] = compound: CN1CCc2c(c3ccccc3n2Cc2ccc(C(=O)NO)cc2)C1 [Tubastatin A]
Outline: as §1

[3] = compound: CNC(=O)C1=CC=CC=C1NC2=NC(=NC=C2Cl)NC3=C(C=C(C=C3)N4CCOCC4)OC
Outline: as §1

[4] = compound: CNC(=O)c1ccc(Nc2ncc(C(F)(F)F)c(NCc3nccnc3N(C)S(C)(=O)=O)n2)cc1 [defactinib]
Outline: as §1

[5] = compound: CNc1nc(-c2ccc3c(N)n[nH]c3c2)cc(N2C[C@@H](C(=O)NC3CCCCC3)CC[C@H]2C)n1
Outline: as §1

[6] = compound: COC(=O)N[C@@H](C)CNc1nccc(-c2cn(C(C)C)nc2-c2cc(Cl)cc(NS(C)(=O)=O)c2F)n1 [encorafenib]
Outline: as §1

[7] = compound: COC(=O)[C@H](CCSC)NC(=O)C1=C(C=C(C=C1)NC[C@H](CS)N)C2=CC=CC=C2
Outline: as §1

[8] = compound: COc1cc(Nc2ncc3c(n2)-c2ccc(Cl)cc2C(c2c(F)cccc2OC)=NC3)ccc1C(=O)O [alisertib]
Outline: as §1

[9] = compound: COc1cc2nc(-c3cc(F)ccc3O)nc(N[C@@H]3CNC[C@H]3C(C)(C)O)c2cc1OC
Outline: as §1

[10] = compound: COc1cc2ncnc(Nc3ccc(F)c(Cl)c3)c2cc1OCCCN1CCOCC1 [gefitinib]
Outline: as §1

[11] = compound: CS(=O)(=O)CCNCc1ccc(-c2ccc3ncnc(Nc4ccc(OCc5cccc(F)c5)c(Cl)c4)c3c2)o1 [lapatinib]
Outline: as §1

[12] = compound: CS(=O)(=O)N1CCN(Cc2cc3nc(-c4cccc5[nH]ncc45)nc(N4CCOCC4)c3s2)CC1 [pictilisib]
Outline: as §1

[13] = compound: C[C@@H](Oc1cc(-c2cnn(C3CCNCC3)c2)cnc1N)c1c(Cl)ccc(F)c1Cl [crizotinib]
Outline: as §1

[14] = compound: C[C@H](C1=CC=C(C=C1)C(=O)NC2=C3C=CNC3=NC=C2)N
Outline: as §1

[15] = compound: C[C@H](Nc1ncnc2nc[nH]c12)c1cc2cccc(Cl)c2c(=O)n1-c1ccccc1 [duvelisib]
Outline: as §1

[16] = compound: Cc1cc(Nc2cc(CN3CCOCC3)c3nc(C)c(Cc4ccc(Cl)cc4F)n3n2)n[nH]1 [gandotinib]
Outline: as §1

[17] = compound: Cc1cc(Nc2cc(N3CCN(C)CC3)nc(Sc3ccc(NC(=O)C4CC4)cc3)n2)n[nH]1 [tozasertib]
Outline: as §1

[18] = compound: Cc1ccc(-n2nc(C(C)(C)C)cc2NC(=O)Nc2ccc(OCCN3CCOCC3)c3ccccc23)cc1 [doramapimod]
Outline: as §1

[19] = compound: Cc1ccc(NC(=O)c2ccc(CN3CC[C@H](N(C)C)C3)c(C(F)(F)F)c2)cc1Nc1nccc(-c2cncnc2)n1 [bafetinib]
Outline: as §1

[20] = compound: Cc1cccc(CC(=O)N2CCc3c2ccc(-c2cn(C)c4ncnc(N)c24)c3F)n1
Outline: as §1

Target	log2 fold change [1]	log2 fold change [2]	log2 fold change [3]	log2 fold change [4]	log2 fold change [5]	log2 fold change [6]	log2 fold change [7]	log2 fold change [8]	log2 fold change [9]	log2 fold change [10]	log2 fold change [11]	log2 fold change [12]	log2 fold change [13]	log2 fold change [14]	log2 fold change [15]	log2 fold change [16]	log2 fold change [17]	log2 fold change [18]	log2 fold change [19]	log2 fold change [20]
TMEM185B (UniProt Q9H7F4)	inactive: 0.097	inactive: 0.184	inactive: 0.046	inactive: 0.057	inactive: -0.077	inactive: -0.031	inactive: -0.058	inactive: -0.066	inactive: 0.01	inactive: 0.117	inactive: -0.06	inactive: -0.047	inactive: -0.075	inactive: 0.119	inactive: -0.01	inactive: -0.056	inactive: 0.073	inactive: 0.01	inactive: 0.017	inactive: -0.103
TLCD1 (UniProt Q96CP7)	inactive: -0.121	inactive: 0.1	inactive: 0.013	inactive: 0.112	inactive: 0.032	inactive: -0.002	inactive: -0.09	inactive: 0.013	inactive: -0.151	inactive: 0.119	inactive: -0.073	inactive: 0.038	inactive: 0.002	inactive: 0.034	inactive: -0.091	inactive: 0.059	inactive: 0.145	inactive: 0.113	inactive: 0.128	inactive: -0.005
THOC7 (UniProt Q6I9Y2)	inactive: 0	inactive: -0.008	inactive: 0.047	inactive: 0.059	inactive: -0.012	inactive: -0.013	inactive: 0.043	inactive: -0.016	inactive: -0.021	inactive: 0.025	inactive: -0.019	inactive: -0.05	inactive: -0.014	inactive: -0.027	inactive: -0.058	inactive: -0.001	inactive: 0.019	inactive: 0.002	inactive: -0.067	inactive: 0.008
TLE3 isoform 4 (UniProt Q04726)	inactive: 0.023	inactive: 0.002	inactive: -0.013	inactive: 0.004	inactive: 0.024	inactive: 0.014	inactive: -0.019	inactive: -0.016	inactive: 0.002	inactive: -0.037	inactive: -0.01	inactive: 0.008	inactive: 0.003	inactive: 0.004	inactive: -0.015	inactive: 0	inactive: -0.029	inactive: -0.016	inactive: 0.1	inactive: -0.048
TM9SF3 (UniProt Q9HD45)	inactive: -0.051	inactive: 0.004	inactive: -0.006	inactive: 0.066	inactive: -0.019	inactive: 0.021	inactive: -0.016	inactive: -0.011	inactive: 0.001	inactive: 0.044	inactive: -0.03	inactive: -0.015	inactive: -0.023	inactive: -0.028	inactive: -0.006	inactive: -0.019	inactive: -0.016	inactive: 0.017	inactive: -0.03	inactive: 0.09
TIMM21 (UniProt Q9BVV7)	inactive: -0.039	inactive: -0.004	inactive: 0.045	inactive: -0.016	inactive: -0.087	inactive: 0.056	inactive: 0.027	inactive: 0.07	inactive: -0.023	inactive: 0.005	inactive: -0.028	inactive: -0.041	inactive: -0.07	inactive: -0.065	inactive: 0.023	inactive: 0.064	inactive: 0.003	inactive: 0.052	inactive: -0.046	inactive: 0.076
TMED1 (UniProt Q13445)	inactive: -0.039	inactive: 0.035	inactive: 0.119	inactive: 0.003	inactive: 0.115	inactive: 0.013	inactive: 0.005	inactive: -0.051	inactive: -0.014	inactive: 0.037	inactive: -0.042	inactive: 0.018	inactive: 0.078	inactive: 0.002	inactive: 0.001	inactive: -0.01	inactive: 0.018	inactive: -0.093	inactive: 0.013	inactive: 0.005
TIMM22 (UniProt Q9Y584)	inactive: 0.023	inactive: 0.072	inactive: 0.027	inactive: 0.018	inactive: -0.141	inactive: 0.05	inactive: -0.019	inactive: 0.027	inactive: 0.029	inactive: -0.027	inactive: -0.036	inactive: -0.011	inactive: 0.134	inactive: -0.058	inactive: 0.03	inactive: 0.11	inactive: -0.02	inactive: -0.038	inactive: 0.021	inactive: -0.007
TMEM11 (UniProt P17152)	inactive: 0.034	inactive: -0.074	inactive: 0.052	inactive: 0.061	inactive: -0.027	inactive: -0.001	inactive: -0.148	inactive: 0.018	inactive: -0.005	inactive: 0.013	inactive: 0.013	inactive: 0.008	inactive: 0.058	inactive: -0.029	inactive: -0.028	inactive: 0.045	inactive: 0.103	inactive: 0.067	inactive: -0.046	inactive: -0.022
TJP1 isoform 2 (UniProt Q07157)	inactive: -0.011	inactive: 0.047	inactive: -0.02	inactive: -0.018	inactive: 0.043	inactive: -0.013	inactive: 0.011	inactive: -0.007	inactive: 0.007	inactive: -0.017	inactive: -0.015	inactive: -0.028	inactive: 0.016	inactive: -0.065	inactive: -0.014	inactive: 0.075	inactive: -0.002	inactive: 0.014	inactive: -0.062	inactive: 0.111
TLK2 isoform 2 (UniProt Q86UE8)	inactive: -0.027	inactive: -0.07	inactive: -0.03	inactive: 0.117	inactive: -0.071	inactive: 0.046	inactive: -0.063	inactive: -0.01	inactive: 0.041	inactive: -0.004	inactive: -0.041	inactive: 0.112	inactive: -0.029	inactive: -0.115	inactive: -0.042	active: 0.351	inactive: 0.126	inactive: 0.006	inactive: 0.004	inactive: 0.049
TMEM161A (UniProt Q9NX61)	inactive: -0.018	inactive: -0.093	inactive: 0.061	inactive: 0.073	inactive: -0.089	inactive: 0.054	inactive: -0.176	inactive: 0.141	inactive: -0.098	inactive: -0.047	inactive: -0.206	inactive: -0.038	inactive: -0.067	inactive: 0.066	inactive: 0.032	inactive: -0.363	inactive: 0.047	inactive: -0.015	inactive: 0.064	inactive: -0.031
THTPA (UniProt Q9BU02)	inactive: 0.011	inactive: 0.009	inactive: -0.008	inactive: 0.018	inactive: 0.04	inactive: 0.062	inactive: -0.002	inactive: -0.208	inactive: -0.078	inactive: 0.009	inactive: -0.099	inactive: 0.062	inactive: 0.039	inactive: 0.033	inactive: 0.055	inactive: -0.122	inactive: 0.009	inactive: -0.005	inactive: 0.047	inactive: -0.053
TIMM13 (UniProt Q9Y5L4)	inactive: -0.016	inactive: -0.022	inactive: -0.005	inactive: 0.001	inactive: 0	inactive: 0.04	inactive: -0.082	inactive: 0.012	inactive: 0.012	inactive: -0.072	inactive: 0.012	inactive: -0.039	inactive: 0.045	inactive: 0.014	inactive: 0.068	inactive: 0.007	inactive: 0.032	inactive: 0.052	inactive: 0.084	inactive: -0.021
TIA1 (UniProt P31483)	inactive: 0.005	inactive: 0.031	inactive: 0.021	inactive: -0.009	inactive: 0.146	inactive: 0.054	inactive: -0.052	inactive: 0.042	inactive: -0.024	inactive: 0.002	inactive: 0.049	inactive: 0.015	inactive: 0.042	inactive: 0.027	inactive: -0.051	inactive: 0.061	inactive: 0.004	inactive: -0.001	inactive: 0.011	inactive: -0.006

Complete entries from above. Values in the order: log2 fold change [1]	log2 fold change [2]	log2 fold change [3]	log2 fold change [4]	log2 fold change [5]	log2 fold change [6]	log2 fold change [7]	log2 fold change [8]	log2 fold change [9]	log2 fold change [10]	log2 fold change [11]	log2 fold change [12]	log2 fold change [13]	log2 fold change [14]	log2 fold change [15]	log2 fold change [16]	log2 fold change [17]	log2 fold change [18]	log2 fold change [19]	log2 fold change [20]
TMEM161A (UniProt Q9NX61) is listed with inactive: -0.018	inactive: -0.093	inactive: 0.061	inactive: 0.073	inactive: -0.089	inactive: 0.054	inactive: -0.176	inactive: 0.141	inactive: -0.098	inactive: -0.047	inactive: -0.206	inactive: -0.038	inactive: -0.067	inactive: 0.066	inactive: 0.032	inactive: -0.363	inactive: 0.047	inactive: -0.015	inactive: 0.064	inactive: -0.031
TIMM22 (UniProt Q9Y584) is listed with inactive: 0.023	inactive: 0.072	inactive: 0.027	inactive: 0.018	inactive: -0.141	inactive: 0.05	inactive: -0.019	inactive: 0.027	inactive: 0.029	inactive: -0.027	inactive: -0.036	inactive: -0.011	inactive: 0.134	inactive: -0.058	inactive: 0.03	inactive: 0.11	inactive: -0.02	inactive: -0.038	inactive: 0.021	inactive: -0.007
